These are yes or no findings as the source states them, for the method shown. Binding can be weak; no strength is given.
Target: T1, prolargin (PRELP), recombinant human (human) (UniProt P51888)
T1 sequence: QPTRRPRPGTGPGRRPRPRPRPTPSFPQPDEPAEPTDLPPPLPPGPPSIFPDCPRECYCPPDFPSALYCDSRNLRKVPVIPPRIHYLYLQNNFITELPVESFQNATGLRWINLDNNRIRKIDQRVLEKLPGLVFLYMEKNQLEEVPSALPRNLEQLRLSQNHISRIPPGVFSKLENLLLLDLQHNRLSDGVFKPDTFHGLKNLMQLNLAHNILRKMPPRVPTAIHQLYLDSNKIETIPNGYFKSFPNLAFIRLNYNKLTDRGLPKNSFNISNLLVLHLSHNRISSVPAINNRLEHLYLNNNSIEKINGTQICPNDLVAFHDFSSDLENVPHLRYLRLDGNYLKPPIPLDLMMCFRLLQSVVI
Assay: SPR

Protein sequences, listed by entry. Tags and fused reporters are not part of them. Lines headed by an entry give the natural chain unless they say otherwise; changes in a name come on top.
UniProt P05230: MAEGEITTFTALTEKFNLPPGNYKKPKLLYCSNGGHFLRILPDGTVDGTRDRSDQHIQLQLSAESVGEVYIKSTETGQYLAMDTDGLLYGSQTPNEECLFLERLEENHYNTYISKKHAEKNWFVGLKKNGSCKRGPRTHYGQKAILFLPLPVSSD
UniProt P09038: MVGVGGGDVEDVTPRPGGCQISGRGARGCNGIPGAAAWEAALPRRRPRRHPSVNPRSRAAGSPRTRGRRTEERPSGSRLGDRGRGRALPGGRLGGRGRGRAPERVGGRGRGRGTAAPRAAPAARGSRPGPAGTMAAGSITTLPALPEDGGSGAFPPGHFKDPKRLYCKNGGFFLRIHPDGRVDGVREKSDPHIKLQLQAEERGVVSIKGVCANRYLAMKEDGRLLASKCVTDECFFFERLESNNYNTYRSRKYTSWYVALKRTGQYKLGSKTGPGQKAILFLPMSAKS
UniProt P01137: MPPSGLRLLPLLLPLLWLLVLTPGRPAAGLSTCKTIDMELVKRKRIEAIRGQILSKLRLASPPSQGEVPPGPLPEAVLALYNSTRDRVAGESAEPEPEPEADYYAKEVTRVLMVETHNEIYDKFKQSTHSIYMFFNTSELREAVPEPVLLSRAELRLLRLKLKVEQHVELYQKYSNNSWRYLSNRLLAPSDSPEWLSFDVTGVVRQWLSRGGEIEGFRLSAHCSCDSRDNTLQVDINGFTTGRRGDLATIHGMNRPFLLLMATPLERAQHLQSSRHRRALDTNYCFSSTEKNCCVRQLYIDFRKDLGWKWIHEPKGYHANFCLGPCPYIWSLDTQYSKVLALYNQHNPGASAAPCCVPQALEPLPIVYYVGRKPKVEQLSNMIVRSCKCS

binding, binds:
FGF1 (from UniProt P05230) (ligand), FGF2 (from UniProt P09038) (ligand), TGF-β1 (from UniProt P01137) (ligand)
